Experimental data: PubChem BioAssay AID1508597 (Cure First, 2020)
Aim: 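Knock-downs altering ovarian cancer cell survival with or without PARP inhibitor rucaparib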 (primary screen). Cell system: human ovarian carcinoma lines grown from tumours: OCI-P5x (papillary serous) and OCI-C5x (clear cell). Reagents: siRNA pool against human genes, 1.25 pmol siRNA per well. Timing: 72 h or 96 h, depending on the cell culture. Conditions: rucaparib 20 µM (about IC30) or vehicle, present until read-out. Rucaparib or vehicle: Vehicle. Cell line: OCI-C5x (clear cell). Measurement: 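ATP luminescence measured at 72 or 96 h according to the culture, then normalised and expressed as percent viability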. Scale: viability, normalised: higher = more viable cells remaining. Call rule: 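a well counts as a hit if its normalised viability is under 80 percent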. Calls: active = viability under 80%; inactive = viability 80% or more.
Shown is a random part of the about 2,100 reagents, in one setting of the screen. 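Calls flag viability under 80% in either arm, not effects specific to rucaparib; the reference for percent is not stated.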 Entries without a mark were called inactive. Some reagents were tested in more than one well and are listed for each. The record does not give: the 100% reference.

EP300 [SID405526755], technical replicate 1 scored viability, normalised (%) = 34.5 (active).
EP300 [SID405526755], technical replicate 1 showed viability, normalised (%) = 31.7 (active).
With EP300 [SID405526755], technical replicate 2, the values are viability, normalised (%) = 49.3 (active).
EP300 [SID405526755], technical replicate 2 showed viability, normalised (%) = 35.9 (active).
EP300 [SID405526755], technical replicate 3 showed viability, normalised (%) = 29.5 (active).
For EP300 [SID405526755], technical replicate 3, the values are viability, normalised (%) = 52 (active).
With SGK2 [SID405527579], technical replicate 1 the deposit lists viability, normalised (%) = 60 (active).
For SGK2 [SID405527579], technical replicate 2, the values are viability, normalised (%) = 67.3 (active).
For SGK2 [SID405527579], technical replicate 3, the values are viability, normalised (%) = 57.4 (active).
MBD1 [SID405526969], technical replicate 1 showed viability, normalised (%) = 39.2 (active).
MBD1 [SID405526969], technical replicate 2 scored viability, normalised (%) = 56.4 (active).
For MBD1 [SID405526969], technical replicate 3 the deposit lists viability, normalised (%) = 43.6 (active).

Copied from the listing for reference:
EP300 [SID405526755], technical replicate 3: viability, normalised (%) = 52 (active)
SGK2 [SID405527579], technical replicate 1: viability, normalised (%) = 60 (active)
